Experimental findings from publication doi:10.1101/102442 are described below.

Amino acid sequences for entries named in this document (tags omitted).
UniProt Q6WKZ8: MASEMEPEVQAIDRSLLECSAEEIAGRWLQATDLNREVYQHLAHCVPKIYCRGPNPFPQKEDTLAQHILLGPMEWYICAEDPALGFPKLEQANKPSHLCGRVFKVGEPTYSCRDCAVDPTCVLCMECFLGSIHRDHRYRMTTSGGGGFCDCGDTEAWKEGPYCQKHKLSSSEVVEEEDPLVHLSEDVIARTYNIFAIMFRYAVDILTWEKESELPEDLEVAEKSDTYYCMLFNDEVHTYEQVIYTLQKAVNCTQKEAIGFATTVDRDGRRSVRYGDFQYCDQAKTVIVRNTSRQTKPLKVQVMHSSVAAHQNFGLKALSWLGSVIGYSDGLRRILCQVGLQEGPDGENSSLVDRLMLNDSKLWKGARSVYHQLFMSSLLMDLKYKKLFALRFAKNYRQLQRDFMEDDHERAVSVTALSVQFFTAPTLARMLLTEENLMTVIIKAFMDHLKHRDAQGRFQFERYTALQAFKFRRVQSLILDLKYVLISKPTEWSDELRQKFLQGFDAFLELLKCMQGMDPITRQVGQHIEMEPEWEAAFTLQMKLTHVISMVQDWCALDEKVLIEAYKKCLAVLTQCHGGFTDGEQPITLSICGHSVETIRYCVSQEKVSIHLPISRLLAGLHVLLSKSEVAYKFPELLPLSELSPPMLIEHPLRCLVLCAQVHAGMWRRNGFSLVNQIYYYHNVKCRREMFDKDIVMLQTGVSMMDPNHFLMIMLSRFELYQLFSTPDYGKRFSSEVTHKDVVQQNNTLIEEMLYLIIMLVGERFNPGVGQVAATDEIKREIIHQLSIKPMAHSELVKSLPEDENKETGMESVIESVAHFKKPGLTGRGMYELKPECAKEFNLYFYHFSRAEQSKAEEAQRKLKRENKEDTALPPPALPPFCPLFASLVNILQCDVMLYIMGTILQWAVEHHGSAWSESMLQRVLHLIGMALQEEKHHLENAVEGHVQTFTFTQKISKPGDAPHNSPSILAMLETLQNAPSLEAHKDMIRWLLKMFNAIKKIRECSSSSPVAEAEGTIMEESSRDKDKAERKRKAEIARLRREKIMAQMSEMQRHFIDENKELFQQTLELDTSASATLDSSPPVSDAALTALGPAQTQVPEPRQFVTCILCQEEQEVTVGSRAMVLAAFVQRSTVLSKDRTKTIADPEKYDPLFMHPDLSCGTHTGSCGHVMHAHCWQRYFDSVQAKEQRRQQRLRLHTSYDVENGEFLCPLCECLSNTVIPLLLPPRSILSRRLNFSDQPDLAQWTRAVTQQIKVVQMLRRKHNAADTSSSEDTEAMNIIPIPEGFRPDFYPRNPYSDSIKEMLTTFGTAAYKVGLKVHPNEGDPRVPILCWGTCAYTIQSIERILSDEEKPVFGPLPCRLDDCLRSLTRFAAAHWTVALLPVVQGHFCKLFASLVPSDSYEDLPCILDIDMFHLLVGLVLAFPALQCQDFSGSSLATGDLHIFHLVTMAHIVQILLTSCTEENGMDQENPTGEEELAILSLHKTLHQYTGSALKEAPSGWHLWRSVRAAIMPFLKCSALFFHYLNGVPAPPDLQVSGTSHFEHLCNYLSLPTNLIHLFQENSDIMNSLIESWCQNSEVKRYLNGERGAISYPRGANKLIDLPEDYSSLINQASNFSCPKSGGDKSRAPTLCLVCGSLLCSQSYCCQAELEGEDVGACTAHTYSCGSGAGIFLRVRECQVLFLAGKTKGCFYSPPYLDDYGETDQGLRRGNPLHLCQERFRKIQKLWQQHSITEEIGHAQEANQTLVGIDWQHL

No constants are given. Whether binding was seen depends on the method and setting. Binding seen in cells or lysates may run through a third protein. These calls come from enrichment with a bait or labelling near it, and not all partners need be listed. Where a sequence is shown, tags or fusion partners need not be part of it.

This test deals with T1, TEX19.1-YFP (mouse ESCs) (mouse) (UniProt Q99MV2).
T1 sequence: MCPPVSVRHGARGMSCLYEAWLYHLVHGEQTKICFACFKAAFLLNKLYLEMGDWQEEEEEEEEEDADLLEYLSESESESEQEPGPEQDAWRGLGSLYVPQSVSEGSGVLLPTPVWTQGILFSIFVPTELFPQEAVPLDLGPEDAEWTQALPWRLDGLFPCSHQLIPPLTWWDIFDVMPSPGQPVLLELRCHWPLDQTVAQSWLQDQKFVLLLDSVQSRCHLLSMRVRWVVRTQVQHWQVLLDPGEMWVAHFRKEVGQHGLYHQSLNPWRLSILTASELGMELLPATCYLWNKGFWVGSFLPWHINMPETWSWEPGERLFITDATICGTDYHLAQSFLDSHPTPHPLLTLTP
In words: affinity purification with mass spectrometry.

Consider “UBR2 (endogenous, mouse ESCs) (from UniProt Q6WKZ8 1-1755) (enzyme)”, for which the binding result is listed as “binds”.
